Experimental data: the supplement of paper PMC6411743
± gives the standard deviation of the averaged measurements. The entries are a selection whose mix differs from that of the whole data set. Most values lie at the level of the controls, where differences are scatter.

Sequences of proteins named here, by UniProt entry; tags and fusion partners are left off. A change or cut given only in a name is not applied to a line headed by its entry.
UniProt P60604: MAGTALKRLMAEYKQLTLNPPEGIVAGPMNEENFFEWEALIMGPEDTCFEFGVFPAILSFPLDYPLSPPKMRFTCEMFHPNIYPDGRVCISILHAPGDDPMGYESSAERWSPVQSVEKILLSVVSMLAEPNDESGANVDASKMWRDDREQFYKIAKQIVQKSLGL
UniProt P55199: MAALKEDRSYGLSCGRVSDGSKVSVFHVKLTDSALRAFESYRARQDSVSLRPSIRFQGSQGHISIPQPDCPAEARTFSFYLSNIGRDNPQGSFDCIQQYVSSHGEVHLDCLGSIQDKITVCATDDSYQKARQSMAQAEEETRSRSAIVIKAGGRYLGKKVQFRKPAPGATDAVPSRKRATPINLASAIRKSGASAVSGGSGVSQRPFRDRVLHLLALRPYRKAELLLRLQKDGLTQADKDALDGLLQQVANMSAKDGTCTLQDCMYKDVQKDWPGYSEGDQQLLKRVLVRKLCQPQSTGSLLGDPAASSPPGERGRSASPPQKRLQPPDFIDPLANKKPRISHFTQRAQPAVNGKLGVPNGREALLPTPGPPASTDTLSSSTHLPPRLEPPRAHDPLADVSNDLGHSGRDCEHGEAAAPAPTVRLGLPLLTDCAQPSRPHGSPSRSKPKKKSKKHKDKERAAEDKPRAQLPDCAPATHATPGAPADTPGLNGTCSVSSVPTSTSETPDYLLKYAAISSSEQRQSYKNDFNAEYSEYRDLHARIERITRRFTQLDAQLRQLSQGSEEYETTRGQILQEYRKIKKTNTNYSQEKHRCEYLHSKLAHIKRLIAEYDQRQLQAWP
UniProt P54277: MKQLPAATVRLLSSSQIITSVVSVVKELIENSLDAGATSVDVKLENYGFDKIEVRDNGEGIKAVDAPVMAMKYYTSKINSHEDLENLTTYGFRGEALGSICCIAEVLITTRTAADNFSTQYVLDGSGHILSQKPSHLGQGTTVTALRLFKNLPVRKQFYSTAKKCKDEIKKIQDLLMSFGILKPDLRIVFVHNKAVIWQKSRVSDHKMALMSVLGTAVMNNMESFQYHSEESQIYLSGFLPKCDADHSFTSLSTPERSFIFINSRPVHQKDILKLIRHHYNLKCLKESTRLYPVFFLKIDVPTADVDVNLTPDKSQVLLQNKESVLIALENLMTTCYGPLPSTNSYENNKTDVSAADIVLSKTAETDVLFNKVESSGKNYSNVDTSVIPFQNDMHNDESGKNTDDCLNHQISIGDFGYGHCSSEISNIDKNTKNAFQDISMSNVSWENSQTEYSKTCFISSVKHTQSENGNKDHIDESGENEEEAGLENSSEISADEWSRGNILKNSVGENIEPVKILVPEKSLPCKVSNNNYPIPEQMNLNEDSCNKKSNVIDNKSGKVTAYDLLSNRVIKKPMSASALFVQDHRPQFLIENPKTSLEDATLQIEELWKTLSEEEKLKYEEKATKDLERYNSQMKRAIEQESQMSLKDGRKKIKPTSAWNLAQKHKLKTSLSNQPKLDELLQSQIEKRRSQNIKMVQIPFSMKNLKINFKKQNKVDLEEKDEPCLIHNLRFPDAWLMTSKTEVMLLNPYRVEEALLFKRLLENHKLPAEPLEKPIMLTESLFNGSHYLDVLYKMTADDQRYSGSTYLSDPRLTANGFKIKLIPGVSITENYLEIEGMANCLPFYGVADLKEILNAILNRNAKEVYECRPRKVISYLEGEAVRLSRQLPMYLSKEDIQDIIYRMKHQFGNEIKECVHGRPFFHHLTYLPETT
UniProt P62312: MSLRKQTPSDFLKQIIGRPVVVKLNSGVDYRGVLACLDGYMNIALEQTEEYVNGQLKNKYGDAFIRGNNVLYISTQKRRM
UniProt P53384: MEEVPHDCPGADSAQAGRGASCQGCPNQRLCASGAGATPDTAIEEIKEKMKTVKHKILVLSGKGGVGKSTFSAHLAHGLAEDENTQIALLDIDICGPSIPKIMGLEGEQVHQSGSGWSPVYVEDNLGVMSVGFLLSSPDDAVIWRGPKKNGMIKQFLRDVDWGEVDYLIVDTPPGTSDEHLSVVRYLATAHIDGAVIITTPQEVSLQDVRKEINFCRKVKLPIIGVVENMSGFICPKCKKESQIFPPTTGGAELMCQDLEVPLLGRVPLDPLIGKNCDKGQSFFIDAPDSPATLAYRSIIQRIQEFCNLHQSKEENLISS
UniProt P61163, whole entry: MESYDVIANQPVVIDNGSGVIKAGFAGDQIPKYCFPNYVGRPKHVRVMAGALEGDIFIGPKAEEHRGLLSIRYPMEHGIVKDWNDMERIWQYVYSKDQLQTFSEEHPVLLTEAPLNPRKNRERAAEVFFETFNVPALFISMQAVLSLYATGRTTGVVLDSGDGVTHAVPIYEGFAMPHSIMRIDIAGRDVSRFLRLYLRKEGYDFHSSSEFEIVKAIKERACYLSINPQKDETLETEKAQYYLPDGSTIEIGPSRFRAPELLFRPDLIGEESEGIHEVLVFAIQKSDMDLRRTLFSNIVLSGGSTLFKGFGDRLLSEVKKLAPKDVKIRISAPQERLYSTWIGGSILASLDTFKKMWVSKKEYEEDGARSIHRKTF
UniProt P68543: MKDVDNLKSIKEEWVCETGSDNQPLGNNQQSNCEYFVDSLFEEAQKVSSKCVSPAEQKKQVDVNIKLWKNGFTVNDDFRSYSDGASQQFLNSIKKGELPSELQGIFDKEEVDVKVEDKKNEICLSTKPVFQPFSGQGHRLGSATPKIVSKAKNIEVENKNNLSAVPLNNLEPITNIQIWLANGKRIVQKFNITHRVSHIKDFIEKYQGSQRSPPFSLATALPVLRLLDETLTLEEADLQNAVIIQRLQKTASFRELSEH
UniProt P54920: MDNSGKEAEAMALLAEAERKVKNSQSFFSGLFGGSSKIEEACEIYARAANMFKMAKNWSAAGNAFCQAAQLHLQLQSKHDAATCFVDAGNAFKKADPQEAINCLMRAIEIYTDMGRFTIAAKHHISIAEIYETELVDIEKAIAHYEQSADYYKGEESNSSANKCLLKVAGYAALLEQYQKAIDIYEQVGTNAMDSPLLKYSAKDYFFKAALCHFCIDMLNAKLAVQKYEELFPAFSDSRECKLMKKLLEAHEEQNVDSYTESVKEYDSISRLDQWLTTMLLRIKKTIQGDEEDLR
UniProt P60468, whole entry: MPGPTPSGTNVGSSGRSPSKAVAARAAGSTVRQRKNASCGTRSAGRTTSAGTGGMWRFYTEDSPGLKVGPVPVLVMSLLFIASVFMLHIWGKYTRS
UniProt P56559: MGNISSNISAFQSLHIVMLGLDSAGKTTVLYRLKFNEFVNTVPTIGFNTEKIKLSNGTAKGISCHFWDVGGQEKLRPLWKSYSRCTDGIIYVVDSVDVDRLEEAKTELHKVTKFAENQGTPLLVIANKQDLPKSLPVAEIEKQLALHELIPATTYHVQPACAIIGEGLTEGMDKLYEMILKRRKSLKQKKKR
UniProt P55809: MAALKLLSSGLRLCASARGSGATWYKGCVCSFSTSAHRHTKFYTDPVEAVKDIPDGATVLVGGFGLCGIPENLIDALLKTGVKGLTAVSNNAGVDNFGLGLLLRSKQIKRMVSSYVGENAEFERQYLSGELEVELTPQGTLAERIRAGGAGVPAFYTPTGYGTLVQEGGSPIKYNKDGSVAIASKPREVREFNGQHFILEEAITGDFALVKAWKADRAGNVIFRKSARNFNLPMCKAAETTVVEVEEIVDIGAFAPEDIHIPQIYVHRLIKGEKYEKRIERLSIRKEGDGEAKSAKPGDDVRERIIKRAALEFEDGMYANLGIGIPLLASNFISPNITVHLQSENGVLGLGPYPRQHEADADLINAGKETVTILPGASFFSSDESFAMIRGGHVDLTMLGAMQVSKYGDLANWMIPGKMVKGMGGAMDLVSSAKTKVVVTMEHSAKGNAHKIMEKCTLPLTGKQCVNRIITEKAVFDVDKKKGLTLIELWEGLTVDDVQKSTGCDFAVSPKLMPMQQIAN
UniProt P78560: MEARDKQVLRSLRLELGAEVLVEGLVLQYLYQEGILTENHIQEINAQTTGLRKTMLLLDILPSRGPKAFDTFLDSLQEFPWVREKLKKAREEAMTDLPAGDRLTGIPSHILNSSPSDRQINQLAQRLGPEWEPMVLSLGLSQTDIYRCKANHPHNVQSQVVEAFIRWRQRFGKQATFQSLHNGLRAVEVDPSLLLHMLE
UniProt P61224: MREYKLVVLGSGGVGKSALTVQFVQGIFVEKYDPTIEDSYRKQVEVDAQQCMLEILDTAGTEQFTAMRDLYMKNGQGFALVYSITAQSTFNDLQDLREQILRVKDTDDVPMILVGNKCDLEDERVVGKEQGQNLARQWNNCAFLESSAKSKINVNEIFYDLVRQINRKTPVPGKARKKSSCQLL
UniProt P60520, whole entry: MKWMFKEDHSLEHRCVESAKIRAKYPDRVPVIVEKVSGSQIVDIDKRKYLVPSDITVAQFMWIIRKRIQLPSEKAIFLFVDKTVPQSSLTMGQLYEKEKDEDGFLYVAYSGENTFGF
UniProt P61019: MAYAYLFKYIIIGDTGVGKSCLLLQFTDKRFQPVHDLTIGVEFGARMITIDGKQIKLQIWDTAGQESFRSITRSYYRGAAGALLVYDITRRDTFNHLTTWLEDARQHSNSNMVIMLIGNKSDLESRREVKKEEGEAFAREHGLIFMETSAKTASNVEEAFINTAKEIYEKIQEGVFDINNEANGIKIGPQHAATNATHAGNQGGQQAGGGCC
UniProt P83916, whole entry, looked up: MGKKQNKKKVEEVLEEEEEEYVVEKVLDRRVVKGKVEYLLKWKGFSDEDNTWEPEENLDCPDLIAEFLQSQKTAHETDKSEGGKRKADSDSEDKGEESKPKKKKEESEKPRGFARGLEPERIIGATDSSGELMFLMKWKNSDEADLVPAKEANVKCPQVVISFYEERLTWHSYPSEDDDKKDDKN
UniProt P53602: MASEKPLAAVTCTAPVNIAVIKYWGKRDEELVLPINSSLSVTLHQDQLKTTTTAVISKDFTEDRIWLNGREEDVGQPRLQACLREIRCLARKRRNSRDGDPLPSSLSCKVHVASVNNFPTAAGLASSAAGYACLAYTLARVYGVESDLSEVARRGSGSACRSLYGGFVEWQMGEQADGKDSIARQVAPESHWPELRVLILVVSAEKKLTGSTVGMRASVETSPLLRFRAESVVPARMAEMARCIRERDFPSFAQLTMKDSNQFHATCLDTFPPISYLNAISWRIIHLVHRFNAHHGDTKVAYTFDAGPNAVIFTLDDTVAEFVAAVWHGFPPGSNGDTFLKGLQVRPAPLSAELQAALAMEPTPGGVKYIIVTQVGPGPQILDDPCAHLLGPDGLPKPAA
UniProt P53597: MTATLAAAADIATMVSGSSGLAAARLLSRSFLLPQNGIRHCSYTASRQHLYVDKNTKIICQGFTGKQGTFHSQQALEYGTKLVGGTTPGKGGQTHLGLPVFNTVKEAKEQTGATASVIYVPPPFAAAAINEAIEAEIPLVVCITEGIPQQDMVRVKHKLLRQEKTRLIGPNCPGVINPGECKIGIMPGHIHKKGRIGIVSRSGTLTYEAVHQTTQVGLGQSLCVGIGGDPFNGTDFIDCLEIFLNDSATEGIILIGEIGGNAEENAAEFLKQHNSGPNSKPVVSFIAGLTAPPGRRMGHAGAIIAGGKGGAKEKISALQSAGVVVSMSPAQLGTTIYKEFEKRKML
UniProt P78330: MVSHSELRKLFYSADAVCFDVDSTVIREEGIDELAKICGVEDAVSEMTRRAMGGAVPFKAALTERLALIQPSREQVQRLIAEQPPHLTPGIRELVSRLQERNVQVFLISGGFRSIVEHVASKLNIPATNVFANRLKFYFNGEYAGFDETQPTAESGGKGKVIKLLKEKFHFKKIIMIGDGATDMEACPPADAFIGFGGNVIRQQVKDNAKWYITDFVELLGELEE
UniProt P55884, whole entry: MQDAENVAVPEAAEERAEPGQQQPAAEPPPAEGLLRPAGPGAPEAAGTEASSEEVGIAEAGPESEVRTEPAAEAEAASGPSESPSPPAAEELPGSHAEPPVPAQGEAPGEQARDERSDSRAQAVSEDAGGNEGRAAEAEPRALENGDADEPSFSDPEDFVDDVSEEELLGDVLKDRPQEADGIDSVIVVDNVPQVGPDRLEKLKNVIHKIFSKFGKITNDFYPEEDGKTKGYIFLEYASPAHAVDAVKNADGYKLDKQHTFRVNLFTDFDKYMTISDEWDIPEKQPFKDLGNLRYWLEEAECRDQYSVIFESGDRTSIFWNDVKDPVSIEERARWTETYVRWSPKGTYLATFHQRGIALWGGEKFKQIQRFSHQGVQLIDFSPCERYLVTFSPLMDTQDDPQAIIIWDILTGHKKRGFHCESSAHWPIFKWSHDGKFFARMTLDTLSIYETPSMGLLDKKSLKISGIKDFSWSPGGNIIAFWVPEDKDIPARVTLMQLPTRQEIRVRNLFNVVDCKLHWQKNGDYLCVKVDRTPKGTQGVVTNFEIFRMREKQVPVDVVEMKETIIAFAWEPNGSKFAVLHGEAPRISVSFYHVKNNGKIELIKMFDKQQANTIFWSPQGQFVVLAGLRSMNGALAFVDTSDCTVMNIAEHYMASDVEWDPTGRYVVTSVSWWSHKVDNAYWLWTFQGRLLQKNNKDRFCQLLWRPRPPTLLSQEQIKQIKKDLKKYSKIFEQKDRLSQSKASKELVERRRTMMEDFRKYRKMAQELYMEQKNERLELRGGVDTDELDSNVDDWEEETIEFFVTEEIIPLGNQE

compound: Nc1ncnc2c1ncn2[C@@H]1O[C@H](COP(=O)(O)OP(=O)(O)OP(=O)(O)O)[C@@H](O)[C@H]1O [adenosine triphosphate]; test: NP40-soluble protein abundance relative to vehicle (solubility fold change) (ratio); higher = more soluble protein in presence of ATP; settings: concentration: 0.1mM
Procedure, shortened: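 In three independent experiments, Jurkat crude lysate made by Dounce homogenisation was treated for 10 min at room temperature and then 3 min at 37 °C with eight concentrations ranging from 0.1 to 10 mM. It was then solubilised with 0.8% NP40 plus benzonase for 60 min at 4 °C and ultracentrifuged. The supernatant was TMT-labelled for LC-MS/MS, and each value is the fold change against the detergent-processed vehicle for the same replicate, using vsn-normalised intensities.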

Target	NP40-soluble protein abundance
UniProt P54886 and related entries	1.04 ± 0.068
UniProt P60604 and related entries	1.01 ± 0.043
ELL (UniProt P55199)	1 ± 0.021
ROMO1 (UniProt P60602)	0.919 ± 0.054
UniProt P54277 and related entries	1.07 ± 0.076
UniProt P62312	0.934 ± 0.059
UniProt P53384 and related entries	0.967 ± 0.058
RPS3A (UniProt P61247)	0.893 ± 0.11
P62158 (UniProt P0DP23)	0.94 ± 0.15
UniProt P61163	1.04 ± 0.03
RAD23B (UniProt P54727)	0.905 ± 0.064
UBXN2A (UniProt P68543)	1 ± 0.046
UniProt P54920 and related entries	0.946 ± 0.077
UniProt P55072	1 ± 0.027
UniProt P62249	0.873 ± 0.1
SEC61B (UniProt P60468)	0.848 ± 0.21
UniProt P56559 and related entries	1.14 ± 0.048
UniProt P62913 and related entries	0.955 ± 0.086
UniProt P78527	1.09 ± 0.068

Target	NP40-soluble protein abundance
MRPS15 (UniProt P82914)	0.869 ± 0.13
OXCT1 (UniProt P55809)	1.04 ± 0.067
UniProt P55210 and related entries	0.993 ± 0.031
P68032 and related entries (UniProt P68133+P68032)	1.14 ± 0.062
MRPS10 (UniProt P82664)	0.987 ± 0.11
UniProt P54619 and related entries	1.01 ± 0.081
CRADD (UniProt P78560)	0.921 ± 0.055
UniProt P61224 and related entries	0.951 ± 0.053
UniProt P62263	0.95 ± 0.089
UniProt P60520	0.974 ± 0.12
UniProt P62487	0.992 ± 0.076
UniProt P61019 and related entries	1.05 ± 0.098
UniProt P83916	1 ± 0.076
MVD (UniProt P53602)	1.03 ± 0.072
CCT2 (UniProt P78371)	1 ± 0.034
SUCLG1 (UniProt P53597)	0.987 ± 0.039
UniProt P78330 and related entries	0.97 ± 0.012
UniProt P55884 and related entries	0.973 ± 0.031

same assay, conditions: concentration: 0.5mM

Target	NP40-soluble protein abundance
UniProt P54886 and related entries	1.03 ± 0.03
UniProt P60604 and related entries	0.975 ± 0.14
ELL (UniProt P55199)	1.02 ± 0.042
ROMO1 (UniProt P60602)	0.849 ± 0.15
UniProt P54277 and related entries	1.22 ± 0.061
UniProt P62312	0.936 ± 0.088
UniProt P53384 and related entries	0.991 ± 0.074
RPS3A (UniProt P61247)	0.864 ± 0.11
P62158 (UniProt P0DP23)	1.06 ± 0.19
UniProt P61163	1.04 ± 0.043
RAD23B (UniProt P54727)	0.867 ± 0.053
UBXN2A (UniProt P68543)	0.949 ± 0.067
UniProt P54920 and related entries	0.913 ± 0.075
UniProt P55072	1.01 ± 0.056
UniProt P62249	0.824 ± 0.12
SEC61B (UniProt P60468)	0.811 ± 0.28
UniProt P56559 and related entries	1.22 ± 0.022
UniProt P62913 and related entries	0.976 ± 0.061
UniProt P78527	1.17 ± 0.038

Target	NP40-soluble protein abundance
MRPS15 (UniProt P82914)	0.904 ± 0.13
OXCT1 (UniProt P55809)	1.04 ± 0.056
UniProt P55210 and related entries	1.05 ± 0.06
P68032 and related entries (UniProt P68133+P68032)	1.13 ± 0.05
MRPS10 (UniProt P82664)	0.978 ± 0.09
UniProt P54619 and related entries	1.03 ± 0.033
CRADD (UniProt P78560)	0.884 ± 0.068
UniProt P61224 and related entries	1 ± 0.011
UniProt P62263	0.98 ± 0.072
UniProt P60520	0.989 ± 0.14
UniProt P62487	0.969 ± 0.07
UniProt P61019 and related entries	0.998 ± 0.038
UniProt P83916	0.982 ± 0.036
MVD (UniProt P53602)	1 ± 0.03
CCT2 (UniProt P78371)	1 ± 0.052
SUCLG1 (UniProt P53597)	1.04 ± 0.027
UniProt P78330 and related entries	0.969 ± 0.041
UniProt P55884 and related entries	0.961 ± 0.077
